Reference: PMC3991325
Results are given in words; binding and its absence hold for the method and conditions named. In cells and extracts the contact can be indirect. Some binding calls cover weakened binding; strength is not graded here. For some assays here: Tags and fused reporters may be left off the sequences shown.

By UniProt entry, the sequences of proteins in these tests, tags left out.
UniProt P42945: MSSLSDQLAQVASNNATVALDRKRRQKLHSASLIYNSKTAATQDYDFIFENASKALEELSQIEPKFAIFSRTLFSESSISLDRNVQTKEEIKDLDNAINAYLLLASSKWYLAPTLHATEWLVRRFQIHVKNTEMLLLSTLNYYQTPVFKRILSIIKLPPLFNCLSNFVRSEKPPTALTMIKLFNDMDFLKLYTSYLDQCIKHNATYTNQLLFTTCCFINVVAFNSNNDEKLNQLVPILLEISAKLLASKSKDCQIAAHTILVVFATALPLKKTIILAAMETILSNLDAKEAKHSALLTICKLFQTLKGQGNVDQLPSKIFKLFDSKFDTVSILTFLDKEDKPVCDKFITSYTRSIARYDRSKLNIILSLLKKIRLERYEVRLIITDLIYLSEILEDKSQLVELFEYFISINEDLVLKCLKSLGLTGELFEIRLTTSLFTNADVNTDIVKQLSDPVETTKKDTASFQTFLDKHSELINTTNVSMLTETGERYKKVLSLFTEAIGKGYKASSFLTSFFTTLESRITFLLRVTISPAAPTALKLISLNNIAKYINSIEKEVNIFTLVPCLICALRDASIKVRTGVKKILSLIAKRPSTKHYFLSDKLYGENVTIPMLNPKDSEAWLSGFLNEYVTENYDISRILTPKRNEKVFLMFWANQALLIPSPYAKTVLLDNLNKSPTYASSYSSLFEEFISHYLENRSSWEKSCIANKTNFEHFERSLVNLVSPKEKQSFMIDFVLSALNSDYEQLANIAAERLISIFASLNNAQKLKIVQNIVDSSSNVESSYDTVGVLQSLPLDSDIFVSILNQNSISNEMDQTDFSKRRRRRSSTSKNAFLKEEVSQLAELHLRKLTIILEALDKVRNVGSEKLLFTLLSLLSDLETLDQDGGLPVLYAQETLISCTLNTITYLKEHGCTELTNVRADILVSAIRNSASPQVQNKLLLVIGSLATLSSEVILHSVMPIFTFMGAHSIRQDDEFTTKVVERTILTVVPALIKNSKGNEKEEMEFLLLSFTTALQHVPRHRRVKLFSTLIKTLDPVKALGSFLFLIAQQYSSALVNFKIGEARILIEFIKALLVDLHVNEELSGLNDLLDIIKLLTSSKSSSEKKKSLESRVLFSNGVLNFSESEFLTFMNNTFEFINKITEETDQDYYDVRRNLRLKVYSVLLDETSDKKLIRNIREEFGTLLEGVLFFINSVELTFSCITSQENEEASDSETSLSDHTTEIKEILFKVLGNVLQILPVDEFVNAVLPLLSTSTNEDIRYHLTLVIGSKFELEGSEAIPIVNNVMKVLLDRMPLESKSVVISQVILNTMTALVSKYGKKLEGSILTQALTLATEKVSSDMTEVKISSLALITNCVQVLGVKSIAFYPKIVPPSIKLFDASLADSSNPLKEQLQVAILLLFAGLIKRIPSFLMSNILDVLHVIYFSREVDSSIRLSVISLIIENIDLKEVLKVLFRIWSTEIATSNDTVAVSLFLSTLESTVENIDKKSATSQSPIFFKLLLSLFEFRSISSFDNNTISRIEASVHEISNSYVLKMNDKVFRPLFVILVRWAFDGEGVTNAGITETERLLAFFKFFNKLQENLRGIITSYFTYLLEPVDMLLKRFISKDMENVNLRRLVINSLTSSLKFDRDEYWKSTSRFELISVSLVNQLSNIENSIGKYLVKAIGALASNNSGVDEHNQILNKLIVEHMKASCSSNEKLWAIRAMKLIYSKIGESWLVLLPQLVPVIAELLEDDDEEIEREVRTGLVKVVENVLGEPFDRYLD
UniProt P35194: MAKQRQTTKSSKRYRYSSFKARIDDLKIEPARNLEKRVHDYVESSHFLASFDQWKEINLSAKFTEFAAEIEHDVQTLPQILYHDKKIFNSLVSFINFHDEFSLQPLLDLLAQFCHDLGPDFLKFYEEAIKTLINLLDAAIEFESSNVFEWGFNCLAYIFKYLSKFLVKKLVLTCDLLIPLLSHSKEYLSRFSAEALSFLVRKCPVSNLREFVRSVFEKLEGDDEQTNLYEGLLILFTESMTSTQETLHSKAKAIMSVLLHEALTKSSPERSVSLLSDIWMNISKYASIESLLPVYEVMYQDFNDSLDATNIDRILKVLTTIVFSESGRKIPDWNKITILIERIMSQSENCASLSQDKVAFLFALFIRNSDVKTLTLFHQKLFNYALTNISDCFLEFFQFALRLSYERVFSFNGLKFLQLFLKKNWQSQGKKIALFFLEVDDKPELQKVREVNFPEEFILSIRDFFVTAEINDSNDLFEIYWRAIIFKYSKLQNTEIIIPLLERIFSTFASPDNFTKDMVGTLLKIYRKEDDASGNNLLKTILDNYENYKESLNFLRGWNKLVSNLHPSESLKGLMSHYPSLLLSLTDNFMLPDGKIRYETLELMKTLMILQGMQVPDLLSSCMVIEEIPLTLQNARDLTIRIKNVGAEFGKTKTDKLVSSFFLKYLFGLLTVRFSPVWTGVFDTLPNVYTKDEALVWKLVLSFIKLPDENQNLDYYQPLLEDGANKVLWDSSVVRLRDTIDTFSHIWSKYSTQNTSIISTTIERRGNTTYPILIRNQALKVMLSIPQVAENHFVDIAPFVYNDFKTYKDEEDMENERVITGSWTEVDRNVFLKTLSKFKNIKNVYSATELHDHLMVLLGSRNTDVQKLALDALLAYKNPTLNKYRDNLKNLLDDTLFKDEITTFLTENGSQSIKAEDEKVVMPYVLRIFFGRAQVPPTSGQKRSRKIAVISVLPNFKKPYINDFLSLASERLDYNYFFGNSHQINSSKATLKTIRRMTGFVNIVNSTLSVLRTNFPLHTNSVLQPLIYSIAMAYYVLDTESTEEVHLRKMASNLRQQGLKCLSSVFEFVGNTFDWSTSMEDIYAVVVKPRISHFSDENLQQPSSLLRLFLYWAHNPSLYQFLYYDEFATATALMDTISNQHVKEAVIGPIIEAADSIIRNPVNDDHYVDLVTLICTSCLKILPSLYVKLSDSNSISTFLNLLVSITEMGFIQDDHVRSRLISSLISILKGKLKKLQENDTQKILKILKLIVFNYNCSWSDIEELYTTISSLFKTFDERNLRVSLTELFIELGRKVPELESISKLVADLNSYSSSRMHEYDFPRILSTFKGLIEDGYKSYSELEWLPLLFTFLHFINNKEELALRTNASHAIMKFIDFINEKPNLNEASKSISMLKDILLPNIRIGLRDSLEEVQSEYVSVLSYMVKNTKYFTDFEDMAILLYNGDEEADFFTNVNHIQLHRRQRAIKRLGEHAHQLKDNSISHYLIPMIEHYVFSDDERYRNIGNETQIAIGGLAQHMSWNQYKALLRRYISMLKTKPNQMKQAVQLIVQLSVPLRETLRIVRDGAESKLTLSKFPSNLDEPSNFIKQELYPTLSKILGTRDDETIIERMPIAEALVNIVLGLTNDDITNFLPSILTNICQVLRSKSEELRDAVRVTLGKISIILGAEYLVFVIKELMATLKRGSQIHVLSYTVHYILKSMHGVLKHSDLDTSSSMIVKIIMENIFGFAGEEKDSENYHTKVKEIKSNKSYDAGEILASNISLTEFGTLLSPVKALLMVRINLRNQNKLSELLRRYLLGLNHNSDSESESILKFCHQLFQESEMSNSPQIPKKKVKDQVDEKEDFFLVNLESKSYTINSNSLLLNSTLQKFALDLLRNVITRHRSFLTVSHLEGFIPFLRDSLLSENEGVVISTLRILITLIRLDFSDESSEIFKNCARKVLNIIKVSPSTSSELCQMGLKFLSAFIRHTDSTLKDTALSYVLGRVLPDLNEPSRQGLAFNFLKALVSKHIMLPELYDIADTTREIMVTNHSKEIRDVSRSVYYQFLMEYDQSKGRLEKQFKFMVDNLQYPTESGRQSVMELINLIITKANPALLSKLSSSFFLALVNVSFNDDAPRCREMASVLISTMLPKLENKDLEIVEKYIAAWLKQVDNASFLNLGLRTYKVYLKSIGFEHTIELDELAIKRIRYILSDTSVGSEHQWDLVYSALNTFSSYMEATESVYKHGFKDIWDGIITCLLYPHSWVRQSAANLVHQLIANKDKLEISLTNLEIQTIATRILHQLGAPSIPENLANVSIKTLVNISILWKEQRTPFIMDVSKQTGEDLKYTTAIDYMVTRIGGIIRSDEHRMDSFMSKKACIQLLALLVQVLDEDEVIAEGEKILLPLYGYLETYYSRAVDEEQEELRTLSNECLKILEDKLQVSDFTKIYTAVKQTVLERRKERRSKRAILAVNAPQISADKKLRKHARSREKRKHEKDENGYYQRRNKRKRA
UniProt Q05022: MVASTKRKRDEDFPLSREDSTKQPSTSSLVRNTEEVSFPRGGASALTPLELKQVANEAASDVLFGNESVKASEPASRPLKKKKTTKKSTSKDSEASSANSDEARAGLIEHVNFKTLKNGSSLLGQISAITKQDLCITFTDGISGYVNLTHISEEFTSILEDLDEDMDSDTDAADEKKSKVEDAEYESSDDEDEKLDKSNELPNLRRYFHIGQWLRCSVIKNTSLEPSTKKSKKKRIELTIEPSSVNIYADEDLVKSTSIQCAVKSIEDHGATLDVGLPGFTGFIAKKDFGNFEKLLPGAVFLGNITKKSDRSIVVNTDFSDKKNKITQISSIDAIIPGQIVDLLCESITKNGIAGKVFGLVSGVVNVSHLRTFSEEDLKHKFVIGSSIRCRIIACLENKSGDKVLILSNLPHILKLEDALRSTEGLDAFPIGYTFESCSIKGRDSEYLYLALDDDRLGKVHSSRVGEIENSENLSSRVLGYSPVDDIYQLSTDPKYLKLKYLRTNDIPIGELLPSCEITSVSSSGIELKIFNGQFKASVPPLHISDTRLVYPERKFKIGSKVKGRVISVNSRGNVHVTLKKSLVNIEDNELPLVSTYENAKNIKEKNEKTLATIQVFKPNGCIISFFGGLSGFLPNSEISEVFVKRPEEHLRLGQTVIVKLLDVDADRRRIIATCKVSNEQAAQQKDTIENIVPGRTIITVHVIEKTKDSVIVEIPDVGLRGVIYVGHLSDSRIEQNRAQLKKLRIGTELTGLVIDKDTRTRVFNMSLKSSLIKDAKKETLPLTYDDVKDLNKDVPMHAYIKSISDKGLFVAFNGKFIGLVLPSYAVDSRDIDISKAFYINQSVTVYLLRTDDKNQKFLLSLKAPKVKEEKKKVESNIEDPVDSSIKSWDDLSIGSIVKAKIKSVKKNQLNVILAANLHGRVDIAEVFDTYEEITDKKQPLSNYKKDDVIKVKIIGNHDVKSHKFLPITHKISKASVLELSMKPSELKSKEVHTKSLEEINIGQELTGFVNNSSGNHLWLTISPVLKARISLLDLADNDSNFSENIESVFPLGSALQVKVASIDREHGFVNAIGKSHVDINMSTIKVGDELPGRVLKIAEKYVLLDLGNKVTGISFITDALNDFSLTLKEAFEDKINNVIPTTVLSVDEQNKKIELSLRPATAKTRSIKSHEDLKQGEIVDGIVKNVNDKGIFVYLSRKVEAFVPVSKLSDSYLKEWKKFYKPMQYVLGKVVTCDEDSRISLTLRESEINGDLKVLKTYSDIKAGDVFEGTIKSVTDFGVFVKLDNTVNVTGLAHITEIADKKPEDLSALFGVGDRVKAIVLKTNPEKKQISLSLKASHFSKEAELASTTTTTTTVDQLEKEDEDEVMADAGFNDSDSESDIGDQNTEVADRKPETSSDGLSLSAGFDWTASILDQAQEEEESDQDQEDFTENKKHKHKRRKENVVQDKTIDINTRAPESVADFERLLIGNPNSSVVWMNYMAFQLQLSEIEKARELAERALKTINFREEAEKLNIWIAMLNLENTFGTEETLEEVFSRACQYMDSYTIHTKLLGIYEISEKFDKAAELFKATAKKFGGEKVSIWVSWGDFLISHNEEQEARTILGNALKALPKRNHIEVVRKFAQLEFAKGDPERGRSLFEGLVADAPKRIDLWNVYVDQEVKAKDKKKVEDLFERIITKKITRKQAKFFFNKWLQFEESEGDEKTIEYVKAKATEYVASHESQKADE

How the values were obtained:
Experiment in all cases: co-IP; GFP-tagged proteins bound to anti-GFP beads at 500 mM NaCl, with and without prior treatment with RNase A + T1; Rrp5-HTP detected by western blotting with anti-TAP antibodies
[1] = molecular target: GFP-tagged Utp10 (budding yeast) (UniProt P42945)
[2] = molecular target: T1, GFP-tagged Utp21 (budding yeast) (UniProt Q06078)
T1 sequence: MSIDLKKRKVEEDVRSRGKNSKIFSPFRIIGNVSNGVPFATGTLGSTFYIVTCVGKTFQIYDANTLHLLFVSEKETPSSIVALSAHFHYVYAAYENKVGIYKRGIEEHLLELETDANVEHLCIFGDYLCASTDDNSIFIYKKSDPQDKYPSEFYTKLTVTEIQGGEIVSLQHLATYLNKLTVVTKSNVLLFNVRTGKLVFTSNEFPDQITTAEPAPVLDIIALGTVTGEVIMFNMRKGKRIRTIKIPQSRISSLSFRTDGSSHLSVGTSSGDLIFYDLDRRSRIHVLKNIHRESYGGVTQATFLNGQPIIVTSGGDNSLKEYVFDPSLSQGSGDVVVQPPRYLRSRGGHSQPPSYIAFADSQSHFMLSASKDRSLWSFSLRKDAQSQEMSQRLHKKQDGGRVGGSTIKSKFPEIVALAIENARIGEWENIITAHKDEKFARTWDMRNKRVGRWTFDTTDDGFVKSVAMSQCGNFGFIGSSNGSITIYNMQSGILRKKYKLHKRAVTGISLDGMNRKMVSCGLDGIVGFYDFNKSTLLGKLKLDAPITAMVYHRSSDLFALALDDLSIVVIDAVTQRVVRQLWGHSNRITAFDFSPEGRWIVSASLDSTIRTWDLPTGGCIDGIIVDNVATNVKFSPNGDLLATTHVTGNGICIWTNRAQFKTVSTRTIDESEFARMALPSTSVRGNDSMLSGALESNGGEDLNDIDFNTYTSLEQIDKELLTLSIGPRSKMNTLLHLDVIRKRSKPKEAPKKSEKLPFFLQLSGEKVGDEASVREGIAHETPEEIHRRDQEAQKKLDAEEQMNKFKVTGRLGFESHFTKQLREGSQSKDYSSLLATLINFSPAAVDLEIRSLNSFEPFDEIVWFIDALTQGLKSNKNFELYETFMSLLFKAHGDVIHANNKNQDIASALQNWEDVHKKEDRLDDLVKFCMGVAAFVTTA

[3] = molecular target: GFP-tagged Utp20 (budding yeast) (UniProt P35194)
[4] = molecular target: T2, GFP-tagged Nop58 (budding yeast) (UniProt Q12499)
T2 sequence: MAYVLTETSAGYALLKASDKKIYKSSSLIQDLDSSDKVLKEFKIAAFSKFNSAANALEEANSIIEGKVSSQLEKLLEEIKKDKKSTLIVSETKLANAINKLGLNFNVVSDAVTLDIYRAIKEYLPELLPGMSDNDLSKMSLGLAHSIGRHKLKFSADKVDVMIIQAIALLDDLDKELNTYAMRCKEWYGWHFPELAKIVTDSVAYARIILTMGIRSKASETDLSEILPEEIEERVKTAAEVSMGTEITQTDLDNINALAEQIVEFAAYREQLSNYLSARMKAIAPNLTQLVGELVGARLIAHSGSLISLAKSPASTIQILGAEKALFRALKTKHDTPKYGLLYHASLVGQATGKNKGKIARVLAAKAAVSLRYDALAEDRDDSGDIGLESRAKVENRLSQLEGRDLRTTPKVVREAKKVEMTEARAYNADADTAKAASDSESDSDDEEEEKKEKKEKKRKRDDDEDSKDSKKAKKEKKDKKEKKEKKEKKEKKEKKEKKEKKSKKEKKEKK

[5] = molecular target: T3, GFP-tagged Kre33 (budding yeast) (UniProt P53914)
T3 sequence: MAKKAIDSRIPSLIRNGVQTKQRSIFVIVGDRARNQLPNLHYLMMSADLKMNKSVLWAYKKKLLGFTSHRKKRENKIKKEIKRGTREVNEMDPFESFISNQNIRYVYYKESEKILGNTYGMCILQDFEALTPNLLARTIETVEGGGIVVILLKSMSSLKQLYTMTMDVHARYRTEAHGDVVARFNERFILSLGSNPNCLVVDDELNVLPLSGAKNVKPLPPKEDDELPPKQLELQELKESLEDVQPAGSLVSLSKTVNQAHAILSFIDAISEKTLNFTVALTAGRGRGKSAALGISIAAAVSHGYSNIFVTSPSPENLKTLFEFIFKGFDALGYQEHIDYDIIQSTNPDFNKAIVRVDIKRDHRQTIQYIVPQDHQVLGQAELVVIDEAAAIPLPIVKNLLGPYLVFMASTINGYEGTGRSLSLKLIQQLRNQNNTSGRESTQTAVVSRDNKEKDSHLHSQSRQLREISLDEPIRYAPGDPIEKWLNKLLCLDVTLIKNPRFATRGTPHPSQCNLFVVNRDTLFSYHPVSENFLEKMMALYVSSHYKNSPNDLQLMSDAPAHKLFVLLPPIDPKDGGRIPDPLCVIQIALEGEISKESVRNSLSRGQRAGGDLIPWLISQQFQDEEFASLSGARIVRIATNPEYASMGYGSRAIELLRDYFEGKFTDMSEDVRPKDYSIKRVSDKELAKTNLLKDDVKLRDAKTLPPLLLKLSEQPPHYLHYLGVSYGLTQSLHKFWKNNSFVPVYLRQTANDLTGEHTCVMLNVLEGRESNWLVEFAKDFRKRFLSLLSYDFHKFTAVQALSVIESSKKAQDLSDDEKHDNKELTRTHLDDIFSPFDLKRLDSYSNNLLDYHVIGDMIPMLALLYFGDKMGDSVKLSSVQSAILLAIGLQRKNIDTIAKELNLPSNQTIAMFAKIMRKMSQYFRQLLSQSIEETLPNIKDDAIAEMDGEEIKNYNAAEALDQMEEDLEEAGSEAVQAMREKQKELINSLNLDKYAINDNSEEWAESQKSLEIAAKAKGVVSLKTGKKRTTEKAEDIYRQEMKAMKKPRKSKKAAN

- binding [1]: binds
- binding [2]: binds
- binding [3]: binds
- binding [4]: binds
- binding [5]: binds
Substance: Rrp5-HTP (from UniProt Q05022 1-1729)
